Among all 52,000 sequences or so, about 210 (0.4%) were called active.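 How the source made its calls: active means gene whose silencing raises cell survival under the drug, median off-target-corrected z-score across its silencing RNAs 2 or more; inactive means the rest.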 The list shows a part of the results.
Experiment: Resistance to Poly (ADP-Ribose) Polymerase inhibitor: Gene Identification via Genome-wide siRNA Screen
Details: mouse BRCA2 R2336H ES cells, olaparib, CellTiter-Glo viability; stronger effect = higher value
From the text: The role of Poly (ADP-Ribose) Polymerase (PARP) proteins in DNA repair has been elegantly utilized for the synthetic lethality-based treatment of BRCA-deficient tumors by PARP inhibitors. PARP inhibitors are now being used for treatment of BRCA-deficient breast and ovarian cancers. […] While several mechanisms of drug resistance have been identified, majority of these tumors develop drug resistance due to unknown causes. To identified novel regulators of chemo-resistance in BRCA2-mutated cells, we performed a genome wide siRNA library screen. We have found ES cells expressing a hypomorphic allele of BRCA2 to be hypersensitive to PAPP inhibitors (such as olaparib). We used ES cells expressing a mutant allele of BRCA2 that has a single amino acid substitution at position 2336 (arginine to histidine, R2336H). The screen was conducted using an Ambion (Thermo) Silencer Mouse Genome siRNA collection. The library targets 17,575 mouse genes with 3 siRNAs per gene. TET2 (E130014J05Rik) was identified as a top candidate.
Transfections were performed in 384 well plates (Corning 3707). Plates were coated with 0.1% gelatin in H2O overnight at ambient temperature. Gelatin solution was aspirated (BioTek EL406) and siRNAs were printed using a Bravo VPrep liquid handler integrated within a BioCel automation platform (Agilent). Cell viability was measured using CellTiter Glo (Promega). For transfections, […] of serum free media containing Lipofectamine RNAiMax […] was added to wells containing siRNA (0.8pmol). Lipid and siRNA were allowed to complex for 45 min at ambient temperature before addition of 1000 cells in DMEM, 30% FBS to yield final transfection mixtures containing 20 nM siRNA in DMEM, 15% FBS. PARPi (olaparib, AZD2281) was added 48 h post-transfection (500 nM) and viability (CellTiter Glo, Promega) was assayed 72 h later on a PerkinElmer Envision 2104 Multilabel plate reader. Ambion Silencer Select Negative Control #2 was incorporated on all screening plates (16 wells) and the median negative control value on each plate was used for normalization. An siRNA targeting Trp53 was used as a positive control. This control yielded a median protective effect of ~1.9 fold versus negative control throughout the screen. The median absolute deviation (MAD) based z-score was calculated for each siRNA. Genes were then ranked by taking the median value for all siRNAs tested against a given gene. Scores were also adjusted for seed-based off-target effects to help deprioritize likely false positives.

| Sequence | z-score |
| --- | --- |
| CGUUCAUGUAUUUGAUGUATT against Asb4 | inactive: -0.775 |
| CCUUACUGGGUUAGAGAUGTT against Sdf2 | inactive: 1.42 |
| CGUGUCUCAUGGCAGAGUUTT against 6330527O06Rik | inactive: 0.108 |
| GGUCACAGUUGUUUGAAGUTT against Bst2 | inactive: -0.291 |
| GGUCCGACUGUCAUGAAUGTT against Dirc2 | inactive: -0.488 |
| GCAGAGGUCUCUAAGCCAUTT against Lad1 | inactive: -0.575 |
| GAGAGAAUCCGUCAACGGATT against 4833420G17Rik | inactive: 0.643 |
| GGACACUUAAAGAUCCUGCTT against Armc7 | inactive: 0.194 |
| CCUGAUCUUGCACUCGAUGTT against Tbx6 | inactive: -0.295 |
| GGGUGUUCAUACAAGCCGUTT against Zp1 | inactive: 0.853 |
| CCUGCACAGGAUAAUUAUGTT against Zfp426 | inactive: 1.21 |
| GGAGAAACGGUACAUCUGUTT against Gstm5 | inactive: 0.631 |
| CCUCUCAGAUUUUCACAUATT against BC050092 | inactive: 0.559 |
| GGGUAAUUGUCUCUAGUAATT against Adam24 | inactive: 1.6 |
| CCUCCUUAGACUCAAAUCCTT against Nfe2l2 | inactive: 1.31 |
| GGAAGAGCCAUCGUUUGCCTT against St5 | inactive: 1.01 |
| GCGCAACAUCUAUAAACGGTT against Mtmr4 | inactive: 1.3 |
| GGAAGAGAUAGCUUGAUUUTT against G22p1 | inactive: -1.68 |
| GGAUUUAUACUGAAUUGUCTT against Rpl39 | inactive: 0.215 |
| CCUGAGUCCACUGAUGAAGTT against LOC432988 | inactive: -1.54 |
| CGCGGUGGAGCUUCGAGAATT against Nrtn | inactive: 0.714 |
| GGAAACUUGCUCAAUUUCCTT against Sec22l2 | inactive: -0.000975 |
| GCGGCAGUGAUGAUAAGAATT against Acbd5 | inactive: 0.377 |
| GGAAAUAUUGUCAUCAUGGTT against Olfr1302 | inactive: 0.757 |
| GGAAGAAGAACUGCACCUATT against Tcea2 | inactive: -0.308 |
| GCGAGUCGCUCAUAGUGAATT against AW822216 | inactive: 0.476 |
| GGAAAGAAACUACUUCAUCTT against G630009D10Rik | inactive: 0.586 |

Copied from the list.
Value for GGGUAAUUGUCUCUAGUAATT against Adam24 under z-score: inactive: 1.6
Value for GCAGAGGUCUCUAAGCCAUTT against Lad1 under z-score: inactive: -0.575

(listing goes on)

| Sequence | z-score |
| --- | --- |
| GGAUGGAUAUCACAUAGAATT against Msr2 | inactive: 1.86 |
| GGAGACAGUAAUAGCUCAUTT against Trp53bp1 | active: 2.14 |
| GGCAUUUAGUGACAACCCATT against Cxcl13 | inactive: 0.491 |
| GGAUACCAGACCUCAAGUGTT against P2rx1 | inactive: -0.242 |
| GCUAUACUUUUGGGUUAUCTT against Mynn | inactive: -0.673 |
| CCCUUCUCUCGGAAUAAUATT against Gng12 | inactive: 0.526 |
| GGAAGAAAAUUCCAAUUUGTT against Rnf24 | inactive: 1.37 |
| GGAUAUCAACUCUUGCUUUTT against Gcl | inactive: 0.677 |
| GUCUAUACACCAAAGAUCUTT against Olfr1014 | inactive: 0.813 |
| CCACACCAUAACAACAUUCTT against Olfr800 | inactive: -0.645 |
| GGCUGGAUUCUUGAACCUGTT against Zfp128 | inactive: -0.119 |
| GCGUGUACUAAGUUCUUUGTT against Olfr549 | inactive: 0.361 |
| CCACUGAAGUAGUUUCCUATT against Nipsnap3a | inactive: -1.97 |
| CCGAUUCCUUAGUCAUCGUTT against Pdgfra | inactive: 0.688 |
| GGAAGCAUUGAAGAUAAGATT against Topbp1 | inactive: 0.226 |
| GGUGGUGAAACUCAAGAUCTT against G630024C07Rik | inactive: 0.381 |
| CCCAGUUAUCCUGAAAAGUTT against 3230401I01Rik | inactive: 0.0119 |
| GGCUUUCUCCAAGCUAUAUTT against Tdgf1 | inactive: -2.27 |
| GCAGGCUAUGCUACGCACATT against Arsb | inactive: 1.66 |
| GGAGGGAAAUGUUUUAUGUTT against BC004022 | inactive: 0.573 |
| GGCUUUGGAAUGAGAGCUUTT against Dncl2a | inactive: -2.06 |
| GGGAUCUGGAUGAGGUCAATT against Tcf3 | inactive: 0.227 |
| CCACAUUUAUGGCUAAAUUTT against BC037674 | inactive: 0.759 |
| GGAUAUCGGAUAUGUAAAUTT against Syk | inactive: -0.298 |
| GAAGGAGACAGCACAAGUCTT against H2-M10.2 | inactive: 1.12 |
| GGACUGUGACAAAGCACAUTT against Ngfa | inactive: -0.872 |
| GGUGCCUAGUUUGUGGAUATT against D10Jhu81e | inactive: 0.466 |

| Sequence | z-score |
| --- | --- |
| GGCAAGGUCAAGGACACCATT against Tcp11 | inactive: 0.516 |
| CGAAAACAAUUACGUCUAUTT against BC027246 | inactive: 0.222 |
| GGCCAUUGAUACCUACUGCTT against Comt | inactive: 0.131 |
| GCACGUAUGGAAUUCAUGUTT against Daam2 | inactive: 0.557 |
| GCGGCUACUCAUAUAAGUCTT against 5033403J15Rik | inactive: 0.175 |
| GGAUCGUUAGUCAUUUCUGTT against Olfr1054 | inactive: -0.691 |
| GGGCUUAACACUUUAAAUCTT against D10Ucla1 | inactive: -0.267 |
| GCUCAGUAAUCGCUGUCUATT against Olfr91 | inactive: -2.51 |
| GGAGCUGCGCAACAUUAUCTT against Ada | inactive: 0.834 |
| GGUGAUCUUUUCUUUCUUUTT against 9430023B20Rik | inactive: 1.26 |
| CCCUCAUCUUUGACGUGGATT against Fkbp1b | inactive: 0.203 |
| GGACUUAUCACUAUUUGCATT against Dlgap3 | inactive: 1.29 |
| GCUAAUAACAGUCCUUUCATT against Rorc | inactive: 1.58 |
| GCCUUACUGACUCGUGUCCTT against 6330503K22Rik | inactive: 1.09 |
| GGCUCCAACAGCGACAUGUTT against Glul | inactive: -0.648 |
| GGAGCAAGAAGAACAUUACTT against Galnact2 | inactive: -0.378 |
| GGUAAAAAGCGCAGACUUATT against Bms1l | inactive: -2.9 |
| GGCAUUCAUGUUCUUGACUTT against Ptp4a1 | inactive: 0.634 |
| GGAUGAUGCUCGAAAGAAGTT against Stk22a | inactive: 0.381 |
| GGAUCUCUUUUUUCACAUGTT against Kcne2 | inactive: 0.338 |
| GGAGAUUGCACACUUCCAGTT against MGC37347 | inactive: -2.37 |
| GGAAGAAACCUUUGUCAAGTT against 9130023H24Rik | inactive: 0.605 |
| GGGAAGUGGCUUUUGAUGUTT against Itih1 | inactive: 0.937 |
| CGAAUCGAGUGAAGAAAAATT against 4930544G11Rik | inactive: 0.034 |
| GGCAAAGCAUAUUUUUCUATT against Crsp6 | inactive: 0.615 |
| GGAACAAAGUAGGAGCUUGTT against Zfp318 | inactive: 0.218 |
| CCGGAAAGUUCGACAUUCCTT against 2310061B02Rik | inactive: -0.824 |

| Sequence | z-score |
| --- | --- |
| GCACAGCACUGCCUAAUGUTT against V2r16 | inactive: -1.42 |
| GCUGAACAAUUUUCAACAATT against 2610207F23Rik | inactive: 0.956 |
| GGGUUUAAAGGUUAUGGAGTT against Adam17 | inactive: 0.166 |
| GCCAGUGGGAUGUCAAAAATT against 5730454B08Rik | inactive: -0.307 |
| GGUAAAUUACUCUGAUCAATT against Gpr61 | inactive: 0.223 |
| GGGAAACUCUGUCCAAUUGTT against Lgtn | inactive: -0.687 |
| CGGUUCUGGUGCAUUCACATT against Olfr242 | inactive: -1.75 |
| GCGUAACGCAGCAGCUAAGTT against Tarbp2 | inactive: 0.00254 |
| GCUGGUAUUCAGCACCUUUTT against Cyp17a1 | inactive: 0.366 |
| GGUACCAUCCGGAAUACAATT against Zdhhc19 | inactive: -2.49 |
| GGGUCUCACUCUCUUCCGATT against Slc23a1 | inactive: 0.934 |
| GGUUUUAAAGGCCAUAUUGTT against Sc4mol | inactive: -0.234 |
| GGUCAAUAUUGGCUUAUGUTT against 0610027O18Rik | inactive: -1.06 |
| GGGAAGAAAAAAAAAGGGUTT against Fkrp | inactive: 0.615 |
| GGAUGAAAAAUCAGUACUUTT against Aadac | inactive: -1.22 |
| GGAGGGACACAGAGAUUACTT against Auh | inactive: 0.259 |
| GGUUCAUCAACACCAGCAUTT against Fgfrl1 | inactive: -0.907 |
| GGAAAGAAAAAUCAGAGAATT against Adprhl1 | inactive: -0.0852 |
| GGGCAUGAAAUGUUCCUGUTT against Prkcc | inactive: -0.872 |
| GCCUGUGCCAGAUUUUCUCTT against Rgl2 | inactive: 1.97 |
| GGAAUGGUUUUUGAAGAGGTT against 4930539I12Rik | inactive: 0.227 |
| CCUGGAAAAUAAAAGGUGGTT against Olfr1141 | inactive: 0.586 |
| GGACACUGUACAGAAGCUGTT against Asb18 | inactive: 2.15 |
| CGAGAAAAAGACCAUAGUUTT against 1110056N09Rik | inactive: -0.147 |

22 entries from above, with bars between the fields:
Sequence | z-score
GGACUGUGACAAAGCACAUTT against Ngfa | inactive: -0.872
GGUGCCUAGUUUGUGGAUATT against D10Jhu81e | inactive: 0.466
GGCAAGGUCAAGGACACCATT against Tcp11 | inactive: 0.516
CGAAAACAAUUACGUCUAUTT against BC027246 | inactive: 0.222
GGCCAUUGAUACCUACUGCTT against Comt | inactive: 0.131
GCACGUAUGGAAUUCAUGUTT against Daam2 | inactive: 0.557
GCGGCUACUCAUAUAAGUCTT against 5033403J15Rik | inactive: 0.175
GGAUCGUUAGUCAUUUCUGTT against Olfr1054 | inactive: -0.691
GGGCUUAACACUUUAAAUCTT against D10Ucla1 | inactive: -0.267
GCUCAGUAAUCGCUGUCUATT against Olfr91 | inactive: -2.51
GGAGCUGCGCAACAUUAUCTT against Ada | inactive: 0.834
GGUGAUCUUUUCUUUCUUUTT against 9430023B20Rik | inactive: 1.26
CCCUCAUCUUUGACGUGGATT against Fkbp1b | inactive: 0.203
GGACUUAUCACUAUUUGCATT against Dlgap3 | inactive: 1.29
GCUAAUAACAGUCCUUUCATT against Rorc | inactive: 1.58
GCCUUACUGACUCGUGUCCTT against 6330503K22Rik | inactive: 1.09
GGCUCCAACAGCGACAUGUTT against Glul | inactive: -0.648
GGAGCAAGAAGAACAUUACTT against Galnact2 | inactive: -0.378
GGUAAAAAGCGCAGACUUATT against Bms1l | inactive: -2.9
GGCAUUCAUGUUCUUGACUTT against Ptp4a1 | inactive: 0.634
GGAUGAUGCUCGAAAGAAGTT against Stk22a | inactive: 0.381
GGAUCUCUUUUUUCACAUGTT against Kcne2 | inactive: 0.338
